This is one part of the list.
How the values were obtained:
Test in all cases: log2 fold change, soluble protein after heating vs DMSO (PISA); higher = thermal stabilisation; K562 lysate, 10 uM; active = over 0.2 and 3.5 SD of the protein, either way, in both replicates (recomputed)
erlotinib = compound: C#Cc1cccc(Nc2ncnc3cc(OCCOC)c(OCCOC)cc23)c1 [erlotinib]
How it was run: (§1)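 To prepare the extract, K562 pellets were dounce-homogenised in PBS pH 7.4 with 1 mM MgCl2, giving crude material at 1 mg/mL protein. This was treated with 10 μM compound for 30 min, then heated in aliquots for 3 min over 48°C-58°C before pooling and addition of NP-40 to 0.5% at 4°C. Centrifugation at 21,000xg for 90 min left soluble protein in the supernatant, which TMTpro 16plex LC-MS/MS quantified with equalised channel sums. Results are log-two fold changes in thermal stability compared with solvent controls, from duplicates.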

Protein sequences, listed by entry. Tags and fused reporters are not part of them. Lines headed by an entry give the natural chain unless they say otherwise; changes in a name come on top.
UniProt Q9UBC2: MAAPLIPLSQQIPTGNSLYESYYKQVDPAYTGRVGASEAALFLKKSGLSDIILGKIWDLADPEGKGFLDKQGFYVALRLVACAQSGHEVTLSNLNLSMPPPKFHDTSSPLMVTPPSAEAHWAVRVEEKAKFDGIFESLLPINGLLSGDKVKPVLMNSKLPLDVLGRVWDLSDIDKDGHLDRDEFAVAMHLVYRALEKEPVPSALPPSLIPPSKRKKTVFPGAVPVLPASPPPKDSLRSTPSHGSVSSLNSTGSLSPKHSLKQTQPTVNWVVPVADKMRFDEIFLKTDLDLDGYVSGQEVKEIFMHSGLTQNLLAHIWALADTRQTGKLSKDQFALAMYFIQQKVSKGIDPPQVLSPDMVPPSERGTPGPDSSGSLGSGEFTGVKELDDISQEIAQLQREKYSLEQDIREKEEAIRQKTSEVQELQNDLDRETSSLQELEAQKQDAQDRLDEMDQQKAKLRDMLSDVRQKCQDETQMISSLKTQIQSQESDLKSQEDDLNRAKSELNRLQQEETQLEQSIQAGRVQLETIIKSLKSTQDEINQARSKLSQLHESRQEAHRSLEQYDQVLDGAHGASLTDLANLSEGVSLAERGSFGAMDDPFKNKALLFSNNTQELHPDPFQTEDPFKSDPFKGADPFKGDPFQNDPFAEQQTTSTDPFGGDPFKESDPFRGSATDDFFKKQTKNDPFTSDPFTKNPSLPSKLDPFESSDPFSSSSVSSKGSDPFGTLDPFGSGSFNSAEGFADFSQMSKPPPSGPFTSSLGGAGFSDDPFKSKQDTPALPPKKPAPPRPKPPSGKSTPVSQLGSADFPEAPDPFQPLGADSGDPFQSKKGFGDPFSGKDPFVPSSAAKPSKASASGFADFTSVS
UniProt Q9NZ08: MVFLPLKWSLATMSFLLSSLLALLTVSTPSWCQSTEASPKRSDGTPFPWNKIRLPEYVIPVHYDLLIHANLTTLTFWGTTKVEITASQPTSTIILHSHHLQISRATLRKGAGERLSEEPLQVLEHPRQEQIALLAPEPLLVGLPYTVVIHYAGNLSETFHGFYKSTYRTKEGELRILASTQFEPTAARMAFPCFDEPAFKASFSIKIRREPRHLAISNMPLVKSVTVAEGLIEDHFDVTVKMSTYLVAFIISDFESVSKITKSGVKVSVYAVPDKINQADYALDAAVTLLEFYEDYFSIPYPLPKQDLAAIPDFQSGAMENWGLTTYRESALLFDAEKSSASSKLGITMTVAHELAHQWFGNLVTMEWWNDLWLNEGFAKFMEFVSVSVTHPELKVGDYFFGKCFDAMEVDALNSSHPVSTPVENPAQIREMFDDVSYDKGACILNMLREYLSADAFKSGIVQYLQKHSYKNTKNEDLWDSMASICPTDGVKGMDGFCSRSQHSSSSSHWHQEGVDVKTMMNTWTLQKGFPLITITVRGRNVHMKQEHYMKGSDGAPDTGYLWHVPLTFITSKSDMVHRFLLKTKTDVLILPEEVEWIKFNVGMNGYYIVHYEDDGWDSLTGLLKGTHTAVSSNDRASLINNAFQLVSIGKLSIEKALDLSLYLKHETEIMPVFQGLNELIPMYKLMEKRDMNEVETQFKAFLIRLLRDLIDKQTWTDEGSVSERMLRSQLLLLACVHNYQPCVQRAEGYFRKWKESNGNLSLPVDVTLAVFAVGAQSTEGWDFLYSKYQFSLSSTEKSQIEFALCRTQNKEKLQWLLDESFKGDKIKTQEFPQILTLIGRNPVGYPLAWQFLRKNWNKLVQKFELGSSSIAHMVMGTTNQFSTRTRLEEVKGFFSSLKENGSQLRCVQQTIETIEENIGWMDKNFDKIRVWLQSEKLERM
UniProt Q14241: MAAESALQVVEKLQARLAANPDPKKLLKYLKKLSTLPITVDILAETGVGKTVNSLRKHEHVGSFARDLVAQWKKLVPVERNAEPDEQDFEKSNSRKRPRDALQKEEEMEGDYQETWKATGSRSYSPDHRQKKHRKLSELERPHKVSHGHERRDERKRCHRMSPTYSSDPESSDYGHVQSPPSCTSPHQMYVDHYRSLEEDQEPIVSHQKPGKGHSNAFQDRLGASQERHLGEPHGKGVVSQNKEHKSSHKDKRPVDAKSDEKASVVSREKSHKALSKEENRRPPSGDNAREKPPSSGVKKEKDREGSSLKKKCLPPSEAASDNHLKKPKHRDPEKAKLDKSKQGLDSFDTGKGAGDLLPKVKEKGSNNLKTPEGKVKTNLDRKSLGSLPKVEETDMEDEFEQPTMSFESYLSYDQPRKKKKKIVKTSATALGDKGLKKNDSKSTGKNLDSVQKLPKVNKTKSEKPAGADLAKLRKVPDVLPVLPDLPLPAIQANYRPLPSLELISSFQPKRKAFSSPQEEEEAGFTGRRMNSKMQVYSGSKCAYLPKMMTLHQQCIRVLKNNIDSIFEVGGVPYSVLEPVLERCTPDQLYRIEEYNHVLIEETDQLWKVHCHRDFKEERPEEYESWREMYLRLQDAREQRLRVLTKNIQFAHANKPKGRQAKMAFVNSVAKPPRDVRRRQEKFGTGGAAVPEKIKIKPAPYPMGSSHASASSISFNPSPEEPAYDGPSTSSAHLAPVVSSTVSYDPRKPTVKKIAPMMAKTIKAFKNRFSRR
UniProt Q9Y6I3: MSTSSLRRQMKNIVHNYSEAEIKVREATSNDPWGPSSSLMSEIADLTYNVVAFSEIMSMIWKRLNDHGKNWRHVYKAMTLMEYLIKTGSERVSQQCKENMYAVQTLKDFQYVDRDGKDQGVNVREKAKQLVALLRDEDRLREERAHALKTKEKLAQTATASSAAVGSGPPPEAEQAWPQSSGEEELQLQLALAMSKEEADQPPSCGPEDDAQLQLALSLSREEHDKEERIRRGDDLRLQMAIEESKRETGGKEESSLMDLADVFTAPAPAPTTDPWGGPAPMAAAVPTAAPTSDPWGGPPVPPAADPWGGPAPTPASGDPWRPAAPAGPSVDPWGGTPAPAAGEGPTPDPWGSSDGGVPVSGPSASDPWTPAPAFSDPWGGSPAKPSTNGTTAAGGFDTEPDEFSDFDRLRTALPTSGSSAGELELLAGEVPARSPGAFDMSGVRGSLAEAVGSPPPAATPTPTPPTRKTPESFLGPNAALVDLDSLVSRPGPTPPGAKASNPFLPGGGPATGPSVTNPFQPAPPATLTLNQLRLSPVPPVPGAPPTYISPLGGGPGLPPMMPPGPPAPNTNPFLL
UniProt O75616: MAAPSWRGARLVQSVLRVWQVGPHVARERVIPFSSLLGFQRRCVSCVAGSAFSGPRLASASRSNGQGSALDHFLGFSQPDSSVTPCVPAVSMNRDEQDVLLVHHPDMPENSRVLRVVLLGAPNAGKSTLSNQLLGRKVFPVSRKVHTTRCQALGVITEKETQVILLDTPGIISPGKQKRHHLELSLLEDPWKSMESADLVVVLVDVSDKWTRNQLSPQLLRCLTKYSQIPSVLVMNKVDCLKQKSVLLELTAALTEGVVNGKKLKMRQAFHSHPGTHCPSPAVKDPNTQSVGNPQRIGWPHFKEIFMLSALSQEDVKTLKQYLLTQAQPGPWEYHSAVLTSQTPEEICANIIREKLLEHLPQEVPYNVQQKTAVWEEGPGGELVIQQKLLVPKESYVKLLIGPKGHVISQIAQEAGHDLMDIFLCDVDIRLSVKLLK
UniProt Q7L2H7, whole entry, looked up: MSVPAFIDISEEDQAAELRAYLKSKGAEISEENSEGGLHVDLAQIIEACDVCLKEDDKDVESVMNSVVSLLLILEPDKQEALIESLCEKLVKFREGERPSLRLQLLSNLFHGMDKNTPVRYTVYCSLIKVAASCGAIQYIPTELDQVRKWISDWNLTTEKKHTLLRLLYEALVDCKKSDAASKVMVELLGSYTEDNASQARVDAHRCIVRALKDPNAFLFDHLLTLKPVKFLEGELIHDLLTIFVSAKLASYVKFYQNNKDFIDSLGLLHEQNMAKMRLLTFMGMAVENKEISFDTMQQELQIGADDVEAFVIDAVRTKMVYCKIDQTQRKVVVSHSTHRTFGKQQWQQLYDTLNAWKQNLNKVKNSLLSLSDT
UniProt Q96RT1: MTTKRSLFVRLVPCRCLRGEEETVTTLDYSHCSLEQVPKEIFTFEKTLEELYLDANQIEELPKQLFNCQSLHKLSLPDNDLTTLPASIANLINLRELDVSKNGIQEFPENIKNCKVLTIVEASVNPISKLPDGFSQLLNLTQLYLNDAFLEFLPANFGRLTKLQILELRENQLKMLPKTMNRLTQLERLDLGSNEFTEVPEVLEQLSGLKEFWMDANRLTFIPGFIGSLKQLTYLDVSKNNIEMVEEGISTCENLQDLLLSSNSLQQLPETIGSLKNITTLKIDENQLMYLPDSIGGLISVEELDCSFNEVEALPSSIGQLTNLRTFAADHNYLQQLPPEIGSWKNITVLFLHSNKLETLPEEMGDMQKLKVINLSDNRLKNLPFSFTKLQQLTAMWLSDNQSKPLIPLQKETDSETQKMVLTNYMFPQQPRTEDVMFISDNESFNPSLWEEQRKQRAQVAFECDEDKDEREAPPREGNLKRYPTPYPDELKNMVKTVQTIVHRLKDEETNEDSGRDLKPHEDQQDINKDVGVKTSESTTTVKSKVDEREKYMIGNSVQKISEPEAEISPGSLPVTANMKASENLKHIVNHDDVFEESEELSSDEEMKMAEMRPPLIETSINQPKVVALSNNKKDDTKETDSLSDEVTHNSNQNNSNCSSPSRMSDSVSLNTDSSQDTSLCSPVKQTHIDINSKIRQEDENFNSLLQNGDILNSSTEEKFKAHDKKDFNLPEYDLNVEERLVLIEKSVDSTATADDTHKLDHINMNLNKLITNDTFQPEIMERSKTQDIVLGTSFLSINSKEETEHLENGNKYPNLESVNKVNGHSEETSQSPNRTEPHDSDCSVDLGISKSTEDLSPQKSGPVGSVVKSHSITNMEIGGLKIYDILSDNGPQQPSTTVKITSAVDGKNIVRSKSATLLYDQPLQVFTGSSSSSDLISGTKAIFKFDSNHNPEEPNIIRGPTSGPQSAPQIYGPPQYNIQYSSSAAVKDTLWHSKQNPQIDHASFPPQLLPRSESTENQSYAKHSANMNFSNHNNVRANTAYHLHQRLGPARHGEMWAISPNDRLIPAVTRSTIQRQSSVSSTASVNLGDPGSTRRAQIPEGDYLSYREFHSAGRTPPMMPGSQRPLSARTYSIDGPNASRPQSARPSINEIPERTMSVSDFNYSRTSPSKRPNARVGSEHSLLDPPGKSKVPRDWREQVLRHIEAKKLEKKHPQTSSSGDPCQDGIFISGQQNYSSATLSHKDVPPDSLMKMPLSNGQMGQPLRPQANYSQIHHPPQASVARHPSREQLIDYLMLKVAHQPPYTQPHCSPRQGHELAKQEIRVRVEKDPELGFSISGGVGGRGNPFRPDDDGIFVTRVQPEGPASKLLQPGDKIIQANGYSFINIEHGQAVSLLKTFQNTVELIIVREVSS
UniProt Q9H4G0, whole entry, looked up: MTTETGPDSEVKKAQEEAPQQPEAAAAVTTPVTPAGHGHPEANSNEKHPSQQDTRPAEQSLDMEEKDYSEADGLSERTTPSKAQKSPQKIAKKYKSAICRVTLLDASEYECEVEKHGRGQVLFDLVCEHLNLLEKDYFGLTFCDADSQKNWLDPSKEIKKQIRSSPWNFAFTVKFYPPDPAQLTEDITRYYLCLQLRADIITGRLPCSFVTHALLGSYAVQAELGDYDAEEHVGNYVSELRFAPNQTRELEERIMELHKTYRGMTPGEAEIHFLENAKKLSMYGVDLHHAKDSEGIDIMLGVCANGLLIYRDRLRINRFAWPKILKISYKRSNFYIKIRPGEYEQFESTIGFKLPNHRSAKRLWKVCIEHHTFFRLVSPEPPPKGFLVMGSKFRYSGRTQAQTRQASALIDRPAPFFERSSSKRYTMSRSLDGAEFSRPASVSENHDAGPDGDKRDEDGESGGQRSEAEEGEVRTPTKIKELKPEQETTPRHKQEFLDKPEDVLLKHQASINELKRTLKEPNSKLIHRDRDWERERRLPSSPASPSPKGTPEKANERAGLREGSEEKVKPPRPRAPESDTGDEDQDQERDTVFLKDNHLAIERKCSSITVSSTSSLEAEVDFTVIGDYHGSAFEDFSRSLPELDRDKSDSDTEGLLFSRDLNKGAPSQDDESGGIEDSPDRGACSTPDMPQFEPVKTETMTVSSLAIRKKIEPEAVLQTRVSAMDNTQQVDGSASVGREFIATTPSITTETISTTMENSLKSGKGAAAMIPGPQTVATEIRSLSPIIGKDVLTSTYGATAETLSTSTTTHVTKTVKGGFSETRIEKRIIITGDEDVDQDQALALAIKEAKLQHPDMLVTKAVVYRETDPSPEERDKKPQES

[1] = compound: C/C(=N\NC(=O)C1=CC(=CC=C1)S(=O)(=O)N2CCOCC2)/C3=C(C=CC(=C3)Cl)O
How it was run: as §1

[2] = compound: C1=CC(=CC=C1C2=NC3=C(N2)C=C(C=C3)C(=O)N)OC4=CC=C(C=C4)Cl
How it was run: as §1

[3] = compound: C1=CC2=C(C=CC(=C2)/C=C\3/C(=O)NC(=NCC4=CC=CS4)S3)N=C1
How it was run: as §1

[4] = compound: C1=CC2=NC=CN=C2C=C1/C=C/3\C(=O)NC(=O)S3
How it was run: as §1

[5] = compound: C1=CC=C(C=C1)C2=NC(=C(N2)C3=CC=NC=C3)C4=CC(=C(C=C4)Cl)O
How it was run: as §1

[6] = compound: C1=CC=C2C(=C1)C3=NNC4=CC=CC(=C43)C2=O
How it was run: as §1

[7] = compound: C1CCN(C1)C(=O)NC2=CC=CC(=C2)NC3=NC=C(C(=N3)NCCC4=CN=CN4)Br
How it was run: as §1

[8] = compound: C1CN(CCC1(CC2=CC=C(C=C2)Cl)N)C3=NC=NC4=C3C=CN4
How it was run: as §1

IRAK-1-4 Inhibitor I = compound: C1COCCN1CCN2C3=CC=CC=C3N=C2NC(=O)C4=CC(=CC=C4)[N+](=O)[O-] [IRAK-1-4 Inhibitor I]
How it was run: as §1

ibrutinib = compound: C=CC(=O)N1CCC[C@@H](n2nc(-c3ccc(Oc4ccccc4)cc3)c3c(N)ncnc32)C1 [ibrutinib]
How it was run: as §1

[9] = compound: CC(=O)c1cnc2ccc(-c3cc(Cl)c(O)c(Cl)c3)nc2c1N[C@H]1CC[C@H](CN(C)C)CC1
How it was run: as §1

ralimetinib = compound: CC(C)(C)Cn1c(N)nc2ccc(-c3[nH]c(C(C)(C)C)nc3-c3ccc(F)cc3)nc21 [ralimetinib]
How it was run: as §1

[10] = compound: CC(C)(O)CC(=O)NCCn1ccc2ncnc(Nc3ccc(Oc4cccc(C(F)(F)F)c4)c(Cl)c3)c21
How it was run: as §1

[11] = compound: CC(C)C1=C2N=C(C=C(N2N=C1)NCC3=CC=CC=C3)NCCCCCCN
How it was run: as §1

[12] = compound: CC1=C(C(CC(=O)N1)C2=CC=C(C=C2)C(F)(F)F)C(=O)NC3=C(C=C4C(=C3)C=NN4)F
How it was run: as §1

[13] = compound: CC1=C(C2=C(C=C1)C(=O)C3=CC=CC=C3N2CCCN)C
How it was run: as §1

[14] = compound: CC1=C(C=C(C=C1)NC(=O)C2=CC(=CC=C2)C(C)(C)C#N)NC3=CC4=C(C=C3)N=CN(C4=O)C
How it was run: as §1

[15] = compound: CC1=C(C=C(C=C1)NC(=O)C2=CC(=CC=C2)N(C)C)NC(=O)C3=CC=C(C=C3)O
How it was run: as §1

[16] = compound: CC1=CC=C(C=C1)SC2=C3C=C(SC3=CN=C2)C(=O)N
How it was run: as §1

Measured: log2 fold change

EPS15L1 isoform 2 (UniProt Q9UBC2)
inactive: erlotinib -0.009 | [1] -0.005 | [2] 0.081 | [3] -0.008 | [4] -0.036 | [5] -0.002 | [6] -0.012 | [7] 0.004 | [8] -0.022 | IRAK-1-4 Inhibitor I -0.002 | ibrutinib -0.003 | [9] -0.013 | ralimetinib 0.01 | [10] 0.004 | [11] 0.004 | [12] -0.012 | [13] 0.024 | [14] 0.002 | [15] 0.001 | [16] -0.025

EIF4H (UniProt Q15056)
inactive: erlotinib -0.014 | [1] 0.055 | [2] 0.025 | [3] 0.006 | [4] 0.007 | [5] -0.015 | [6] 0.032 | [7] 0.004 | [8] 0.001 | IRAK-1-4 Inhibitor I 0.014 | ibrutinib -0.029 | [9] -0.007 | ralimetinib -0.017 | [10] -0.022 | [11] 0 | [12] 0.007 | [13] 0.007 | [14] 0.003 | [15] -0.013 | [16] -0.042

ERAP1 isoform 2 (UniProt Q9NZ08)
inactive: erlotinib 0.003 | [1] -0.017 | [2] 0.003 | [3] -0.007 | [4] -0.007 | [5] 0.002 | [6] -0.005 | [7] -0.017 | [8] 0.012 | IRAK-1-4 Inhibitor I 0.011 | ibrutinib -0.004 | [9] 0.003 | ralimetinib 0.001 | [10] -0.001 | [11] -0.011 | [12] 0.025 | [13] -0.015 | [14] 0 | [15] 0.009 | [16] 0.001

Taken from above (two entries):
EIF4H (UniProt Q15056)
inactive: erlotinib -0.014 | [1] 0.055 | [2] 0.025 | [3] 0.006 | [4] 0.007 | [5] -0.015 | [6] 0.032 | [7] 0.004 | [8] 0.001 | IRAK-1-4 Inhibitor I 0.014 | ibrutinib -0.029 | [9] -0.007 | ralimetinib -0.017 | [10] -0.022 | [11] 0 | [12] 0.007 | [13] 0.007 | [14] 0.003 | [15] -0.013 | [16] -0.042

ERAP1 isoform 2 (UniProt Q9NZ08)
inactive: erlotinib 0.003 | [1] -0.017 | [2] 0.003 | [3] -0.007 | [4] -0.007 | [5] 0.002 | [6] -0.005 | [7] -0.017 | [8] 0.012 | IRAK-1-4 Inhibitor I 0.011 | ibrutinib -0.004 | [9] 0.003 | ralimetinib 0.001 | [10] -0.001 | [11] -0.011 | [12] 0.025 | [13] -0.015 | [14] 0 | [15] 0.009 | [16] 0.001

Next results.

ELOA (UniProt Q14241)
inactive: erlotinib -0.046 | [1] -0.026 | [2] 0.015 | [3] 0.012 | [4] -0.129 | [5] -0.011 | [6] 0.092 | [7] -0.023 | [8] 0.005 | IRAK-1-4 Inhibitor I -0.102 | ibrutinib 0.022 | [9] -0.008 | ralimetinib 0.023 | [10] -0.003 | [11] 0.012 | [12] 0.031 | [13] -0.024 | [14] 0.035 | [15] 0.013 | [16] 0.034

EPN1 (UniProt Q9Y6I3)
inactive: erlotinib -0.001 | [1] 0.014 | [2] 0.022 | [3] -0.005 | [4] 0.001 | [5] 0.024 | [6] 0.004 | [7] 0 | [8] 0.018 | IRAK-1-4 Inhibitor I 0.005 | ibrutinib 0.026 | [9] 0.037 | ralimetinib -0.014 | [10] 0.012 | [11] -0.018 | [12] -0.029 | [13] -0.012 | [14] -0.021 | [15] 0 | [16] -0.011

EIF3H (UniProt O15372)
inactive: erlotinib -0.014 | [1] -0.065 | [2] 0.028 | [3] 0.007 | [4] -0.004 | [5] 0.004 | [6] -0.009 | [7] 0.015 | [8] 0.004 | IRAK-1-4 Inhibitor I 0.004 | ibrutinib -0.012 | [9] 0 | ralimetinib -0.02 | [10] -0.002 | [11] -0.022 | [12] 0.006 | [13] -0.006 | [14] 0.007 | [15] 0.007 | [16] -0.019

EIF2B5 (UniProt Q13144)
inactive: erlotinib 0.015 | [1] -0.052 | [2] -0.017 | [3] 0.011 | [4] 0.03 | [5] -0.011 | [6] -0.054 | [7] 0.006 | [8] 0.007 | IRAK-1-4 Inhibitor I 0.027 | ibrutinib 0 | [9] 0.008 | ralimetinib 0.027 | [10] -0.018 | [11] 0.008 | [12] -0.019 | [13] 0.012 | [14] -0.031 | [15] 0.008 | [16] 0.02

ERAL1 (UniProt O75616)
inactive: erlotinib -0.016 | [1] -0.003 | [2] 0.05 | [3] -0.014 | [4] 0.03 | [5] 0.015 | [6] -0.027 | [7] -0.041 | [8] -0.047 | IRAK-1-4 Inhibitor I -0.042 | ibrutinib 0.052 | [9] -0.042 | ralimetinib 0.03 | [10] 0.011 | [11] -0.007 | [12] 0.047 | [13] 0.03 | [14] 0.014 | [15] 0.045 | [16] 0.018

EIF3M (UniProt Q7L2H7)
inactive: erlotinib 0.023 | [1] -0.056 | [2] -0.008 | [3] 0.016 | [4] -0.007 | [5] 0 | [6] 0.025 | [7] -0.021 | [8] 0.003 | IRAK-1-4 Inhibitor I 0.011 | ibrutinib -0.001 | [9] 0.012 | ralimetinib -0.003 | [10] 0.003 | [11] 0.012 | [12] 0.014 | [13] 0.019 | [14] -0.006 | [15] 0 | [16] 0.001

EPHX2 (UniProt P34913)
inactive: erlotinib -0.024 | [1] 0.133 | [2] 0.156 | [3] 0.036 | [4] -0.023 | [5] -0.014 | [6] 0.014 | [7] 0.077 | [8] -0.002 | IRAK-1-4 Inhibitor I -0.014 | ibrutinib 0.051 | [9] -0.002 | ralimetinib -0.001 | [10] -0.02 | [11] 0.099 | [12] 0.004 | [13] -0.006 | [14] 0.11 | [15] 0.06 | [16] 0.051

ERBIN isoform 8 (UniProt Q96RT1)
inactive: erlotinib 0 | [1] -0.002 | [2] -0.008 | [3] 0.044 | [4] -0.032 | [5] -0.001 | [6] -0.034 | [7] 0.007 | [8] 0.023 | IRAK-1-4 Inhibitor I -0.034 | ibrutinib 0.029 | [9] -0.011 | ralimetinib -0.003 | [10] 0.01 | [11] -0.003 | [12] -0.037 | [13] 0.012 | [14] -0.007 | [15] 0.019 | [16] -0.01

EIF3B (UniProt C9JQN7)
inactive: erlotinib -0.121 | [2] 0.133 | [4] -0.055 | [5] -0.011 | IRAK-1-4 Inhibitor I 0.035 | ibrutinib 0.05 | [9] -0.011 | ralimetinib -0.07 | [10] -0.095 | [11] 0.069 | [12] -0.037 | [14] -0.052 | [15] 0.053 | [16] -0.116

EMC3 (UniProt Q9P0I2)
inactive: erlotinib -0.054 | [1] 0.004 | [2] 0.002 | [3] -0.018 | [4] 0.014 | [5] -0.037 | [6] -0.077 | [7] 0.06 | [8] 0.048 | IRAK-1-4 Inhibitor I 0.063 | ibrutinib -0.047 | [9] -0.018 | ralimetinib -0.019 | [10] -0.02 | [11] -0.048 | [12] 0.056 | [13] -0.017 | [14] 0.013 | [15] 0.037 | [16] 0.007

EPB41L1 (UniProt Q9H4G0)
inactive: erlotinib -0.008 | [1] 0.115 | [2] 0.009 | [3] 0.021 | [4] 0.05 | [5] 0.016 | [6] -0.007 | [7] -0.066 | [8] -0.039 | IRAK-1-4 Inhibitor I 0.044 | ibrutinib 0.003 | [9] 0.03 | ralimetinib -0.006 | [10] -0.072 | [11] 0.003 | [12] 0.021 | [13] 0.038 | [14] -0.033 | [15] -0.005 | [16] 0.007

ELL (UniProt P55199)
inactive: erlotinib -0.03 | [1] -0.968 | [2] 0.052 | [3] -0.022 | [4] -0.05 | [5] -0.017 | [6] -0.065 | [7] -0.017 | [8] 0.033 | IRAK-1-4 Inhibitor I 0.012 | ibrutinib 0.01 | [9] -0.006 | ralimetinib 0.016 | [10] 0.003 | [11] 0.019 | [12] -0.075 | [13] -0.07 | [14] 0.006 | [15] 0.015 | [16] -0.002
